Assay results as given in the supplement of paper PMC10849652.
This is one part of the list. Residues, ends and D or L forms follow the SMILES beside them. *: point of attachment. Cbz = O=C(OCc1ccccc1)*

By UniProt entry, the sequences of proteins in these tests, tags left out. Where a name states a change or a piece, a line headed by the entry shows the natural chain unless it says otherwise.
UniProt Q8NEF9: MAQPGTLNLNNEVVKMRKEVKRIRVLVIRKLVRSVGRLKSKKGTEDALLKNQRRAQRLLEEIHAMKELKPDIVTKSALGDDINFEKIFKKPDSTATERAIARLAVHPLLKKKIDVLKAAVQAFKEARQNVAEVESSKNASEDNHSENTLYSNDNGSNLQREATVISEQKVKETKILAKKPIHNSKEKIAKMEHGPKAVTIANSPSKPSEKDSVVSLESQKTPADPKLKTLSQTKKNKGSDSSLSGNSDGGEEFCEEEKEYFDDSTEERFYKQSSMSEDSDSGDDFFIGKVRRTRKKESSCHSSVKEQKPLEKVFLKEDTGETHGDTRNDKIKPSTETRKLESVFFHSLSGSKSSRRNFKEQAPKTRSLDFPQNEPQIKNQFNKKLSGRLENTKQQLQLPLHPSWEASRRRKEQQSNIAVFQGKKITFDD
UniProt Q6ZUB1: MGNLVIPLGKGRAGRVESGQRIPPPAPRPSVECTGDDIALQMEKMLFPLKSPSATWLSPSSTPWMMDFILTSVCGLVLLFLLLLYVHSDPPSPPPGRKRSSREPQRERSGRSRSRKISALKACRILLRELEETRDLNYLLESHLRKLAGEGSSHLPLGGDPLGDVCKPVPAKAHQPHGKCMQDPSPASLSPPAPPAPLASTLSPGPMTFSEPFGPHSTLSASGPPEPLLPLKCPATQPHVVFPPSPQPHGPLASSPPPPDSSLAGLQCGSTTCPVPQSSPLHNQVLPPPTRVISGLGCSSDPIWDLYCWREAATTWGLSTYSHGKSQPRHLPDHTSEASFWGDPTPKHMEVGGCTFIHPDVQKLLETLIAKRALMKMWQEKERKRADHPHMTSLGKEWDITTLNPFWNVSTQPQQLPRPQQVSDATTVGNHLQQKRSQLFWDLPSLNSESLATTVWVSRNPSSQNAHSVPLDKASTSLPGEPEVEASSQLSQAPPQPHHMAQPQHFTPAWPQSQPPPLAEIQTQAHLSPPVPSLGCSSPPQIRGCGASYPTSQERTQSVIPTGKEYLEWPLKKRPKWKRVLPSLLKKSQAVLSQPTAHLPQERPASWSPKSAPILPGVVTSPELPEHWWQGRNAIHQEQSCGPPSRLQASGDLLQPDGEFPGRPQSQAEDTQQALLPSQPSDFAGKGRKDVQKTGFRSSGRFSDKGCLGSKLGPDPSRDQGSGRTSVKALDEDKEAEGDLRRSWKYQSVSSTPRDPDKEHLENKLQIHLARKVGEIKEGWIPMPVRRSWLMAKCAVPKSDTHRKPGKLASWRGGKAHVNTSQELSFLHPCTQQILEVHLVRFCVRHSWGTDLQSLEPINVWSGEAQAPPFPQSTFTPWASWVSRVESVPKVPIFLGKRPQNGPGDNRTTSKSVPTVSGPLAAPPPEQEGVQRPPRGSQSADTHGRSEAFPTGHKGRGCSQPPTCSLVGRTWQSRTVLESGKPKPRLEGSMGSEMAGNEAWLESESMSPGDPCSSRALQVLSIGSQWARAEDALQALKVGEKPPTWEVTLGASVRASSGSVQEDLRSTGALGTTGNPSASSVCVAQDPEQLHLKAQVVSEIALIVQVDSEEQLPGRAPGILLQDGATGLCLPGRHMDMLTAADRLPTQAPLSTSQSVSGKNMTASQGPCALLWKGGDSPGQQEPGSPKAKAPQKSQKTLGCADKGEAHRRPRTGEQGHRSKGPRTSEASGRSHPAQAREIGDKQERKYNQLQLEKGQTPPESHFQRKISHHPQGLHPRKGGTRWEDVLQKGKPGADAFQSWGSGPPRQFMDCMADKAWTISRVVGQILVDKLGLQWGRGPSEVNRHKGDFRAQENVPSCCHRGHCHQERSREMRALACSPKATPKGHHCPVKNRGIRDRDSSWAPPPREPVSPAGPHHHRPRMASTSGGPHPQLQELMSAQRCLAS
UniProt P35270: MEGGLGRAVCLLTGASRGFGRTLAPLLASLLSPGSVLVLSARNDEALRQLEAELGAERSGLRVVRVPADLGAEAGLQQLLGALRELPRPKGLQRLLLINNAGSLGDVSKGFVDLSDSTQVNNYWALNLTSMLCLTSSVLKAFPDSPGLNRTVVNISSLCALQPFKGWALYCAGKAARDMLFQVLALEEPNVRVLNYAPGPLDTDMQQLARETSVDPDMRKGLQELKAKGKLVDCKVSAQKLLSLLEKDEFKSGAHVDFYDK
UniProt Q16629: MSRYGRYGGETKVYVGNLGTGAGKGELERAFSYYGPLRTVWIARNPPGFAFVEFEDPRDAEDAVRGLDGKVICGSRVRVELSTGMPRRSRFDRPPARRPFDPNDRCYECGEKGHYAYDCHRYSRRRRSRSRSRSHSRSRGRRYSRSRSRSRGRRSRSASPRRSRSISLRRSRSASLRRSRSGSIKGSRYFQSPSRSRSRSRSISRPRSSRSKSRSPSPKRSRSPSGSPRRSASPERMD
UniProt Q9UH36: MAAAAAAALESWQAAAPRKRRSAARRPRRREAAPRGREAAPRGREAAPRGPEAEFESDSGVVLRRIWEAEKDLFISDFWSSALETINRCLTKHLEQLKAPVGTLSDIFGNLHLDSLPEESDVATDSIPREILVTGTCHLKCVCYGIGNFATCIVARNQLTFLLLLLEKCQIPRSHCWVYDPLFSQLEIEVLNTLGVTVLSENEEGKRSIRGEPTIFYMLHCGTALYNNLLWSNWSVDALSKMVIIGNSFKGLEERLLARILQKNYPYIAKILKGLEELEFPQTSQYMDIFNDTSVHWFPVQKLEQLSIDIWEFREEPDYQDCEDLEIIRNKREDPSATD
UniProt Q96JI7: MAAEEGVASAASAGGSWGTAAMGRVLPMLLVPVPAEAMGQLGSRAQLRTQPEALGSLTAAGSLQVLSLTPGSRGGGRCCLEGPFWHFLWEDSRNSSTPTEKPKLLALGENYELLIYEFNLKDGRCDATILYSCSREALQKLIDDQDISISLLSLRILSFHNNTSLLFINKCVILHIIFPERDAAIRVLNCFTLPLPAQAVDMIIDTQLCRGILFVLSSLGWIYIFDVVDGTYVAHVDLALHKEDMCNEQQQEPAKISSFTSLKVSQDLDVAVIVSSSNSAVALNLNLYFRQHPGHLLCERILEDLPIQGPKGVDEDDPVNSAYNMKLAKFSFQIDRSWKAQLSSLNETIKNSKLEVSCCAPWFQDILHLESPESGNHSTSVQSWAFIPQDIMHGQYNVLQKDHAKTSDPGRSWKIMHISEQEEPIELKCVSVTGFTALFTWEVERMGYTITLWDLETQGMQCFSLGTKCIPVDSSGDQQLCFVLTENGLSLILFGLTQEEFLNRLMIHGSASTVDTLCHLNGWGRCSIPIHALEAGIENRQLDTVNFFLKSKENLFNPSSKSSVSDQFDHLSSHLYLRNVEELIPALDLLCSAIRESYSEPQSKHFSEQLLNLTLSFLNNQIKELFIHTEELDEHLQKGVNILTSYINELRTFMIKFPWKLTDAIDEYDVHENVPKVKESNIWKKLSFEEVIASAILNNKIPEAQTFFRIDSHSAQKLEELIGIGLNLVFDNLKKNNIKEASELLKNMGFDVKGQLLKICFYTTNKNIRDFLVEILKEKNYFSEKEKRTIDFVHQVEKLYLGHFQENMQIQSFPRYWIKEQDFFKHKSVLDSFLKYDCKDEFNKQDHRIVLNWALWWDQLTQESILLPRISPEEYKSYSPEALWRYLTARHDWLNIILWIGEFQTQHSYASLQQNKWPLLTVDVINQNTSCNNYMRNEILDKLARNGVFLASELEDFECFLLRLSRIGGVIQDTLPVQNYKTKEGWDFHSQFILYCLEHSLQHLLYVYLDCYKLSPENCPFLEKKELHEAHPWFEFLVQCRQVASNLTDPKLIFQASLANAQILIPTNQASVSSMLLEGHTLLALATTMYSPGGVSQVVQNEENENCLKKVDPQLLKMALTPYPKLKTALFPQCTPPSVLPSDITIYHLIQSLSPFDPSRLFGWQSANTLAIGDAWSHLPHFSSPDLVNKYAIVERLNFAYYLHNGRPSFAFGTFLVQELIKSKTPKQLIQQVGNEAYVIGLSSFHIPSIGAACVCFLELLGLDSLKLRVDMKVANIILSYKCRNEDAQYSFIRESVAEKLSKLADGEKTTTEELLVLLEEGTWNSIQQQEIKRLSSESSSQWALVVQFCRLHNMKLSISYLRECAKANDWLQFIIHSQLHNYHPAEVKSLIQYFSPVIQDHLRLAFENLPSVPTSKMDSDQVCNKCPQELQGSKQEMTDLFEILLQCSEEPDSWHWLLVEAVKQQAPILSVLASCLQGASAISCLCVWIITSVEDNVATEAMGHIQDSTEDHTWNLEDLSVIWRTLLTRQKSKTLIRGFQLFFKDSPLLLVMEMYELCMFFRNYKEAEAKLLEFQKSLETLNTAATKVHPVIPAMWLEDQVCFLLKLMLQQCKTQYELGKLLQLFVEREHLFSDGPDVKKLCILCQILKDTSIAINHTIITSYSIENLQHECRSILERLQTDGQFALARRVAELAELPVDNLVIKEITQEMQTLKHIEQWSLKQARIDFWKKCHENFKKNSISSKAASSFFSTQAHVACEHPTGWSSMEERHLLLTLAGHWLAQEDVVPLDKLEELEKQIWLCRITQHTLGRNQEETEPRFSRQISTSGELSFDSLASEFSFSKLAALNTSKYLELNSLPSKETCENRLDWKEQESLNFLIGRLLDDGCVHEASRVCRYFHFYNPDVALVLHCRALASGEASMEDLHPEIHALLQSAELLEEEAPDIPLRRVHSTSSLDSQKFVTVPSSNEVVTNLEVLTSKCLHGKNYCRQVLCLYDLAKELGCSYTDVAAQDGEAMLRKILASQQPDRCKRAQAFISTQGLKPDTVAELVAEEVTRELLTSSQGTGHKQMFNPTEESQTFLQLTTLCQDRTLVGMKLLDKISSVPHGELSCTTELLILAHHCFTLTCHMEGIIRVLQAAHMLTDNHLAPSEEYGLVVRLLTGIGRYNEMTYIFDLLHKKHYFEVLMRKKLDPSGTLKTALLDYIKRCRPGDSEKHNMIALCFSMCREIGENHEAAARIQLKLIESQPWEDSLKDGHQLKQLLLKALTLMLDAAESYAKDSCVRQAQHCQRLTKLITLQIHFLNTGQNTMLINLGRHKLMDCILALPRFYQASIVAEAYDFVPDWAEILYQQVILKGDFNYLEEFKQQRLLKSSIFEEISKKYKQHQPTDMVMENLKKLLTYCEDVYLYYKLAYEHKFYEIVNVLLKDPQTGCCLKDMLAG
UniProt Q8TCT7: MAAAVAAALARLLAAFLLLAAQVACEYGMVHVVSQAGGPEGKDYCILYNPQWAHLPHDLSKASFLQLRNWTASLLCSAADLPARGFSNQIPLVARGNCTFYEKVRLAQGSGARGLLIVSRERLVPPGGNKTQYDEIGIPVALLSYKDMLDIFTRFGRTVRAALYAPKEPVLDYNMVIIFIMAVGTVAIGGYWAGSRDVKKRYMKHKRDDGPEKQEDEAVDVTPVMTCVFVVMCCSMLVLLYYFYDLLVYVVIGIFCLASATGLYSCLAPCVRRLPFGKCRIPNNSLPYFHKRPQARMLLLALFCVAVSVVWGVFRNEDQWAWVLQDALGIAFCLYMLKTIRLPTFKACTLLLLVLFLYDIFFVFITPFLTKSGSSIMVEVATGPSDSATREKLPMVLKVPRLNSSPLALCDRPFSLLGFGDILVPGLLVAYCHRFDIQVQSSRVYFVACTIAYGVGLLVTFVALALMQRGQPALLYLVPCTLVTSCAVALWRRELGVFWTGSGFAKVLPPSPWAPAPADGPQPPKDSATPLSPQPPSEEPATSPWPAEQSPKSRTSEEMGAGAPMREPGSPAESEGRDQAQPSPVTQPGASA
UniProt Q9NP77: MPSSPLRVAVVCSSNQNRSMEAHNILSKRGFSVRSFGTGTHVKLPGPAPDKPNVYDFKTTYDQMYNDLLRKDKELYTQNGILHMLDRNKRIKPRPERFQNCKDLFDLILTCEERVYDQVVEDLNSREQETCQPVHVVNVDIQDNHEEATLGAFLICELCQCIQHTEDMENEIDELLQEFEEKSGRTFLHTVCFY
UniProt Q96EA4: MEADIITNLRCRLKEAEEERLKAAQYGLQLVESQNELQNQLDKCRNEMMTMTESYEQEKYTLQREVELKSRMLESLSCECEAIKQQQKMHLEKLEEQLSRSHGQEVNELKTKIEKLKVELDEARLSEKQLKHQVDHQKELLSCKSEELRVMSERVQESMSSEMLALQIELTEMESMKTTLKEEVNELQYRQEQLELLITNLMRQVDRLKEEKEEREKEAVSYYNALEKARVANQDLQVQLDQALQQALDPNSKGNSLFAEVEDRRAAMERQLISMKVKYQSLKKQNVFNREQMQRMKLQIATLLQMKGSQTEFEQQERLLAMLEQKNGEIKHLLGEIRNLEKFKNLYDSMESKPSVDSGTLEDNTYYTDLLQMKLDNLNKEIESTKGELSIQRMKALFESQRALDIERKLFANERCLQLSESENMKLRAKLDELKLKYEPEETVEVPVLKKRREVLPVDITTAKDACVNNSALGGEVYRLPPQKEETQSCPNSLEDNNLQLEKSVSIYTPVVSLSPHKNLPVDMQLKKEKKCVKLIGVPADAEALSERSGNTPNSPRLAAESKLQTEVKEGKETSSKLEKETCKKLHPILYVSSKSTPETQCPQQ

Key:
Assay in all cases: log2 fold change, soluble protein after heating vs DMSO (PISA); higher = thermal stabilisation; K562 cells, 10 uM, 30 min; active = over 0.2 and 3.5 SD of the protein, either way, in both replicates (recomputed)
IRAK-1-4 Inhibitor I = compound: C1COCCN1CCN2C3=CC=CC=C3N=C2NC(=O)C4=CC(=CC=C4)[N+](=O)[O-] [IRAK-1-4 Inhibitor I]
Procedure, shortened: (§1)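 Soluble protein was quantified by TMTpro 16plex LC-MS/MS after channel sums were equalised. It was obtained as the supernatant after 21,000xg for 90 min from pooled aliquots of K562 cells (2×10^6 cells/mL, 10 μM compound, 30 min) heated for 3 min across 48°C-58°C and extracted in PBS with 0.5% NP-40 at 4°C. Thermal stability values are relative to control samples and come from duplicates. They are given as log2 fold changes.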

ibrutinib = compound: C=CC(=O)N1CCC[C@@H](n2nc(-c3ccc(Oc4ccccc4)cc3)c3c(N)ncnc32)C1 [ibrutinib]
Procedure, shortened: as §1

[1] = compound: CC(=O)c1cnc2ccc(-c3cc(Cl)c(O)c(Cl)c3)nc2c1N[C@H]1CC[C@H](CN(C)C)CC1
Procedure, shortened: as §1

ralimetinib = compound: CC(C)(C)Cn1c(N)nc2ccc(-c3[nH]c(C(C)(C)C)nc3-c3ccc(F)cc3)nc21 [ralimetinib]
Procedure, shortened: as §1

[2] = compound: CC(C)(O)CC(=O)NCCn1ccc2ncnc(Nc3ccc(Oc4cccc(C(F)(F)F)c4)c(Cl)c3)c21
Procedure, shortened: as §1

[3] = compound: CC(C)C1=C2N=C(C=C(N2N=C1)NCC3=CC=CC=C3)NCCCCCCN
Procedure, shortened: as §1

[4] = compound: CC(C)C[C@@H](C=O)NC(=O)[C@H](CC(C)C)NC(=O)[C@H](CC(C)C)NC(=O)OCc1ccccc1
Procedure, shortened: as §1

pinometostat = compound: CC(C)N(C[C@H]1O[C@@H](n2cnc3c(N)ncnc32)[C@H](O)[C@@H]1O)[C@H]1C[C@@H](CCc2nc3cc(C(C)(C)C)ccc3[nH]2)C1 [pinometostat]
Procedure, shortened: as §1

[5] = compound: CC1=C(C2=C(C=C1)C(=O)C3=CC=CC=C3N2CCCN)C
Procedure, shortened: as §1

[6] = compound: CC1=C(C(CC(=O)N1)C2=CC=C(C=C2)C(F)(F)F)C(=O)NC3=C(C=C4C(=C3)C=NN4)F
Procedure, shortened: as §1

Measured: log2 fold change

SRFBP1 (UniProt Q8NEF9)
inactive: IRAK-1-4 Inhibitor I -0.081 | ibrutinib -0.037 | [1] -0.099 | ralimetinib -0.022 | [2] 0.091 | [3] 0.137 | [4] 0.25 | pinometostat 0.018 | [5] 0.023

SRI (UniProt P30626)
inactive: IRAK-1-4 Inhibitor I -0.017 | ibrutinib -0.032 | [1] -0.014 | ralimetinib -0.039 | [2] -0.108 | [3] 0.026 | [4] -0.048 | pinometostat -0.036 | [5] 0.201

SPATA31E1 (UniProt Q6ZUB1)
inactive: IRAK-1-4 Inhibitor I -0.003 | ibrutinib -0.1 | [1] -0.228 | ralimetinib -0.031 | [4] 0.094 | pinometostat 0.013 | [6] 0.014

SPR (UniProt P35270)
inactive: IRAK-1-4 Inhibitor I 0.063 | ibrutinib 0.04 | [1] 0.344 | ralimetinib 0.017 | [2] -0.038 | [3] 0.035 | [4] -0.008 | pinometostat -0.053 | [5] 0.083

STAM2 (UniProt O75886)
inactive: IRAK-1-4 Inhibitor I 0.033 | ibrutinib 0.008 | [1] -0.018 | ralimetinib 0.034 | [2] 0.038 | [3] -0.131 | [4] 0.018 | pinometostat 0.014 | [5] 0.004

SRSF7 (UniProt Q16629)
inactive: IRAK-1-4 Inhibitor I -0.112 | ibrutinib 0.128 | [1] -0.288 | ralimetinib 0.098 | [2] 0.24 | [3] 0.032 | [4] 0.084 | pinometostat 0.128 | [5] -0.266

STAT6 (UniProt P42226)
inactive: IRAK-1-4 Inhibitor I -0.145 | ibrutinib 0.031 | [1] -0.222 | ralimetinib 0.054 | [2] -0.128 | [3] -0.058 | [4] 0.007 | pinometostat 0.11 | [5] -0.048

STAT3 (UniProt P40763)
inactive: IRAK-1-4 Inhibitor I -0.038 | ibrutinib -0.044 | [1] 0.009 | ralimetinib -0.001 | [2] -0.08 | [4] 0.024 | pinometostat 0 | [5] -0.057
active: [3] -0.261

STK26 (UniProt Q9P289)
active: ibrutinib -0.272 | [1] -0.344
inactive: IRAK-1-4 Inhibitor I 0.03 | ralimetinib -0.022 | [2] -0.081 | [3] -0.071 | [4] 0.03 | pinometostat -0.019 | [5] -0.07

SRSF4 (UniProt Q08170)
inactive: IRAK-1-4 Inhibitor I -0.306 | ibrutinib 0.069 | [1] -0.261 | ralimetinib 0.125 | [2] 0.088 | [3] -0.174 | [4] 0.019 | pinometostat 0.126 | [5] -0.379

SRRD (UniProt Q9UH36)
inactive: IRAK-1-4 Inhibitor I -0.066 | ibrutinib 0.142 | [1] -0.086 | [2] -0.065 | [3] -0.222 | pinometostat -0.089 | [6] -0.086 | [5] 0.058

STARD3 (UniProt Q14849)
active: [3] -0.429
inactive: IRAK-1-4 Inhibitor I -0.075 | ibrutinib 0.23 | [1] -0.033 | ralimetinib 0.033 | [2] -0.075 | [4] 0.122 | pinometostat 0 | [5] -0.044

SRRM2 (UniProt Q9UQ35)
inactive: IRAK-1-4 Inhibitor I -0.074 | ibrutinib -0.015 | [1] -0.326 | ralimetinib 0.063 | [2] 0.01 | [3] -0.258 | [4] 0.002 | pinometostat 0.005 | [5] -0.181

SRSF3 (UniProt P84103)
inactive: IRAK-1-4 Inhibitor I -0.207 | ibrutinib 0.11 | [1] -0.035 | ralimetinib 0.112 | [2] 0.19 | [3] 0.083 | [4] 0.152 | pinometostat 0.064 | [5] -0.134

STK11IP (UniProt Q8N1F8)
inactive: IRAK-1-4 Inhibitor I -0.248 | ibrutinib 0.027 | [1] -0.02 | [2] -0.131 | pinometostat 0.168 | [5] -0.183
active: [3] -0.932

SREK1 isoform 2 (UniProt Q8WXA9)
active: [1] -0.497
inactive: IRAK-1-4 Inhibitor I -0.245 | ibrutinib -0.006 | ralimetinib 0.036 | [2] 0.026 | [3] -0.36 | [4] 0.005 | pinometostat 0.11 | [5] 0.08

SRD5A3 (UniProt Q9H8P0)
inactive: IRAK-1-4 Inhibitor I 0.104 | ibrutinib -0.112 | [1] -0.027 | ralimetinib -0.446 | [3] -0.424 | [4] 0.066 | pinometostat -0.044 | [6] 0.147

SPG11 (UniProt Q96JI7)
inactive: IRAK-1-4 Inhibitor I -0.027 | ibrutinib 0.128 | [1] -0.065 | ralimetinib -0.151 | [2] 0.103 | [3] 0.051 | [4] 0.405 | pinometostat 0.035 | [5] 0.097

SRXN1 (UniProt Q9BYN0)
inactive: IRAK-1-4 Inhibitor I -0.291 | ibrutinib -0.013 | [1] 0.12 | ralimetinib -0.134 | [2] -0.201 | [4] -0.024 | pinometostat 0.187 | [5] -0.026

SPPL2B (UniProt Q8TCT7)
inactive: IRAK-1-4 Inhibitor I -0.004 | ibrutinib 0.013 | [1] -0.039 | ralimetinib 0.041 | [2] 0.179 | [3] -0.086 | [4] 0.101 | pinometostat -0.032 | [5] 0.02

SPTBN4 (UniProt Q9H254)
active: [3] -0.671
inactive: IRAK-1-4 Inhibitor I -0.008 | ibrutinib 0.1 | [1] -0.06 | ralimetinib -0.032 | [2] -0.025 | [4] -0.07 | pinometostat -0.007 | [5] -0.016

SSB (UniProt P05455)
inactive: IRAK-1-4 Inhibitor I -0.006 | ibrutinib -0.038 | [1] -0.209 | ralimetinib 0.017 | [2] 0.001 | [3] -0.038 | [4] 0.011 | pinometostat -0.005
active: [5] -0.474

STAU2 (UniProt Q9NUL3)
inactive: IRAK-1-4 Inhibitor I -0.104 | ibrutinib 0.08 | [1] 0.162 | [2] 0.077 | [3] -0.177 | pinometostat 0.138 | [5] -0.135

SPTBN1 (UniProt Q01082)
inactive: IRAK-1-4 Inhibitor I -0.079 | ibrutinib -0.013 | [1] -0.033 | ralimetinib 0.08 | [2] 0.043 | [3] -0.094 | [4] 0.024 | pinometostat 0.044 | [5] -0.001

SSU72 (UniProt Q9NP77)
inactive: IRAK-1-4 Inhibitor I -0.244 | ibrutinib -0.144 | [1] -0.134 | [2] -0.128 | [3] -0.299 | pinometostat 0.118 | [5] -0.108

SRBD1 (UniProt Q8N5C6)
inactive: [2] 0.088

SPICE1 (UniProt Q8N0Z3)
inactive: ibrutinib 0.199 | [6] 0.121

Reprinted from above (two entries):
SSU72 (UniProt Q9NP77)
inactive: IRAK-1-4 Inhibitor I -0.244 | ibrutinib -0.144 | [1] -0.134 | [2] -0.128 | [3] -0.299 | pinometostat 0.118 | [5] -0.108

SRBD1 (UniProt Q8N5C6)
inactive: [2] 0.088

The list goes on:

STAR (UniProt P49675)
inactive: ralimetinib 0.005 | [4] -0.05

SPDL1 (UniProt Q96EA4)
inactive: ralimetinib 0.009 | [3] -0.477 | [4] 0.16 | [5] -0.015

SPIRE2 (UniProt Q8WWL2)
inactive: IRAK-1-4 Inhibitor I 0.137 | ibrutinib 0.065 | ralimetinib -0.036 | [2] 0.406 | [4] -0.185 | pinometostat -0.168 | [5] -0.401

SREK1IP1 (UniProt Q8N9Q2)
inactive: ibrutinib -0.019 | [1] 0.066 | ralimetinib -0.036 | [2] 0.053 | [3] 0.031 | [4] 0.089 | [6] 0.014 | [5] 0.086
